Experimental findings from paper PMC7415812 are described below.

By UniProt entry, the sequences of proteins in these tests, tags left out. Residues count along the entry.
UniProt O00206, residues 24-839: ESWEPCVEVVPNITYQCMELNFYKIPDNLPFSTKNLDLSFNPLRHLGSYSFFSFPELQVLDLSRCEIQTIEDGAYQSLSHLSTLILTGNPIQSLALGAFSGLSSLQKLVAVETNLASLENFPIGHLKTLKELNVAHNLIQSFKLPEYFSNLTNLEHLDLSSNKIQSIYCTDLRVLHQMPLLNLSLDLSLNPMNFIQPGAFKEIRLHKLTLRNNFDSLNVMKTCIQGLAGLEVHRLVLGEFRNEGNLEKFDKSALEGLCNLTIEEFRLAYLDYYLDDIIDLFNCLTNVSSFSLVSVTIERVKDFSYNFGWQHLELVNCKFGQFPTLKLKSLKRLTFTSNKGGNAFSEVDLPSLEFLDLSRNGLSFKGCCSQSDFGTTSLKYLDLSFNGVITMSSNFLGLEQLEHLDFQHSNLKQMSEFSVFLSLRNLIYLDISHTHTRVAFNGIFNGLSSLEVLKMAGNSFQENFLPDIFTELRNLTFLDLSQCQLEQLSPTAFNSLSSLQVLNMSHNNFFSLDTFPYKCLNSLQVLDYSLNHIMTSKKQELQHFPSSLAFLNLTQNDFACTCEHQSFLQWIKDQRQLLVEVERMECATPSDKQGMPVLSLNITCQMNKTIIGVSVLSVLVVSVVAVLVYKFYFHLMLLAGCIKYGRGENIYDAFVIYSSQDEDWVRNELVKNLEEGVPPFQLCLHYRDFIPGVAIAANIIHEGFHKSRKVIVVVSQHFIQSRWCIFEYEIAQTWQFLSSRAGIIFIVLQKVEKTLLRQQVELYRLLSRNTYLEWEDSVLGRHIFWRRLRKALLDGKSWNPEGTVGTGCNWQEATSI
UniProt Q03135: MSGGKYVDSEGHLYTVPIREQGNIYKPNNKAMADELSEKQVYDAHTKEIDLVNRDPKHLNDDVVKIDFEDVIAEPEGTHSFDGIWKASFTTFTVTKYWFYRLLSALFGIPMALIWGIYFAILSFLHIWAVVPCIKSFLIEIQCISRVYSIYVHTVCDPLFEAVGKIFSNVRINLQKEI

These are yes or no findings as the source states them, for the method shown. In cells and extracts the contact can be indirect. Some binding calls cover weakened binding; strength is not graded here.

In assay [1] the target is toll-like receptor-4 (human (endogenous in OVCAR-3)) (UniProt O00206). The experiment in a line: co-IP; antibody against the target protein or IgG (negative control) on protein A/G beads; OVCAR-3 cells lysed in RIPA buffer; beads with lysate overnight at 4 °C; washed with PBS with 0.1% NP-40; eluate analysed by Western blot.
Assay [2] shares this target. The experiment in a line: proximity ligation; Duolink PLA in fixed OVCAR-3 cells, primary antibodies 1:200 overnight at 4 °C, confocal microscopy; cells untreated or treated with Selene (Selene-L 10 µM, Selene-H 15 µM).
The target of assay [3] is caveolin 1 (human (endogenous in OVCAR-3)) (UniProt Q03135). The experiment in a line: co-IP; antibody against the target protein or IgG (negative control) on protein A/G beads; OVCAR-3 cells lysed in RIPA buffer; beads with lysate overnight at 4 °C; washed with PBS with 0.1% NP-40; eluate analysed by Western blot.

Take caveolin 1 (from UniProt Q03135 1-178): the binding entry in assay [1] and in assay [2] was “binds” each time.

“toll-like receptor-4 (from UniProt O00206 24-839)”: the binding entry in assay [3] is given as “binds”.
